# About 7,500 (2.1%) of roughly 360,000 compounds were called active. Inconclusive results, whose numbers are uncertain, are shown with a selection of clear calls. Calls come from the whole dose curve; as a rule, active = well fitted inhibition curve with a large enough effect; inconclusive = small, poorly fitted or top-dose-only effect, or effect the other way; inactive = flat fitted curve, though single readings scatter. Potencies of inconclusive entries are doubtful fits and often do not repeat.
# Test: Nrf2 qHTS screen for inhibitors; note: nearly all actives have a fitted effect of over 60% in size
# Conditions: A549 ARE-Fluc reporter, luciferase luminescence, 18-24 h; series mostly up to 46 µM
# Procedure, shortened: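 Concentration-response testing used A549 ARE_Fluc cells at 5000 cells/well. Following an 18-24 h compound incubation, viability was read by fluorescence (Ex 405/Em 525) and luciferase output by luminescence.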
# Potency is the fitted concentration of half-maximal effect.
row,Structure (SMILES),Potency
1,Cc1ccc(S(=O)(=O)CCSc2nc(C)cc(C(F)(F)F)c2C#N)cc1,"inconclusive: 18.4 µM [falling, single point]"
2,O=C(Nc1cc(C(=O)N2CCN(c3ccccc3O)CC2)ccc1Cl)c1cccs1,"inconclusive: 18.4 µM [falling, single point]"
3,Nc1nonc1-n1nnc(C(=O)N/N=C/c2ccccn2)c1-c1ccccc1,"inconclusive: 25.9 µM [falling, partial curve, poor fit]"
4,CC(=O)N(c1cccc(C(F)(F)F)c1)c1nc(/C=C/C(=O)O)cs1,"inconclusive: 29.1 µM [falling, single point]"
5,COc1ccc(S(=O)(=O)N(CC(=O)Nc2ccccc2Br)Cc2ccccc2)cc1,"inconclusive: 29.1 µM [falling, single point]"
6,Cc1nnnn1/C(=C\c1ccccc1)C(=O)OCC(=O)Nc1ccc(Cl)cc1F,"inconclusive: 1.64 µM [falling, partial curve]"
7,COc1ccc(CC(=O)OCC(=O)Nc2ncc(Cl)cc2Cl)cc1,"inconclusive: 7.31 µM [activator, partial curve, poor fit]"
8,C=CCN1C=C(C(=O)c2ccccc2)C(=O)CC1,inactive
9,Cc1cc(Nc2ccccc2)nc(NCc2ccccc2)n1,inactive
10,Cc1ccc(Sc2ccc(N)cc2C#N)cc1,"inconclusive: 1.64 µM [falling, full curve, poor fit]"
11,CCC1CCCCN1C(=O)CSc1nc2c(c(=O)n1C)SC(C)C2 (stereo not given),"inconclusive: 25.9 µM [falling, single point]"
12,Cc1cc2ccccc2c(=O)n1CC(=O)NCC1COc2ccccc2O1 (stereo not given),inactive
13,CCOC(=O)CN(C(=O)CSc1nnc(-c2ccc(OC)c(OC)c2)o1)c1ccccc1,"inconclusive: 14.6 µM [falling, partial curve]"
14,N#Cc1ccc(C(=O)Nc2cc3nn(-c4ccccc4)nc3cc2Cl)c(F)c1,"inconclusive: 3.66 µM [activator, full curve]"
15,CCCCSc1cnn(-c2ccccc2)c(=O)c1SCCCC,"inconclusive: 29.1 µM [falling, partial curve, poor fit]"
16,COc1ccc(-n2nc(C(=O)NCC(=O)N3CCCC3)c3ccccc3c2=O)cc1Cl,"inconclusive: 0.82 µM [falling, partial curve, poor fit]"
17,O=C(NC(=S)Nc1cccnc1)c1cccs1,"inconclusive: 2.31 µM [activator, partial curve]"
18,C/C(=N\Nc1ccc([N+](=O)[O-])cc1[N+](=O)[O-])c1ccc(-n2nncc2C(C)(C)C)cc1,"inconclusive: 29.1 µM [falling, partial curve, poor fit]"
19,O=C(c1cccc(S(=O)(=O)N2CCc3ccccc32)c1)N1CCN(c2ccccc2)CC1,"inconclusive: 20.6 µM [falling, single point]"
20,COC(=O)c1c(-c2ccsc2)oc2ccc(-c3cc(OC)c(OC)c(OC)c3)cc12,"inconclusive: 29.1 µM [falling, single point]"
21,CCC1=Nc2cc(C(=O)NCCCOC)ccc2Sc2ccc(Br)cc21,"inconclusive: 1.84 µM [activator, full curve, poor fit]"
22,CC(C)CC(=O)Nc1cccc(-c2nc3ccccc3[nH]2)c1,inactive

row,Structure (SMILES),Potency
1,O=C(/C=C/c1ccccc1)N1CCN(CCN2C(=O)c3cccc4cccc(c34)C2=O)CC1,inactive
2,O=C(c1cc2nc(-c3ccccc3)cc(-c3ccccc3)n2n1)N1CCCC1,"inconclusive: 23.1 µM [falling, single point]"
3,CCCCc1ccc(NC(=S)NCCc2ccc(F)cc2)cc1,"inconclusive: 29.1 µM [falling, single point]"
4,Cc1cccc(-c2noc(-c3ccccc3OCC(=O)Nc3ccc([N+](=O)[O-])cc3)n2)c1,"inconclusive: 23.1 µM [falling, single point]"
5,COCCN1CCCC(CNCc2cn(C)nc2-c2ccc(Oc3ccccc3)cc2)C1 (stereo not given),"inconclusive: 16.4 µM [activator, single point]"
6,CNC(=O)C1CCC(Cn2c(=O)c3sccc3n(CC(=O)NCc3ccccc3)c2=O)CC1 (stereo not given),"inconclusive: 29.1 µM [activator, single point]"
7,COc1ccc(/C=N\NC(=O)c2ccc(-c3ccccc3)cc2)c(OC)c1OC,inactive
8,COC(=O)C1(c2ccccc2)NC(c2cccs2)C2C(=O)N(C)C(=O)C21 (stereo not given),"inconclusive: 0.92 µM [activator, single point]"
9,COc1ccc(OC)c(-c2csc(N(C)C(=O)c3ccco3)n2)c1,"inconclusive: 20.6 µM [falling, partial curve, poor fit]"
10,N/C(=N\OC(=O)COc1ccc(Br)cc1Cl)c1ccccn1,"inconclusive: 0.82 µM [activator, partial curve, poor fit]"
11,Cc1ccccc1NS(=O)(=O)c1ccc(C(=O)N2CCN(S(=O)(=O)c3ccccc3)CC2)cc1,"inconclusive: 14.6 µM [falling, partial curve]"
12,CC(C)c1ccc(/C=C/C(=O)Nc2ccc(CN3CCOCC3)cc2)cc1,active: 23.1 µM
13,Cc1cc(C)cc(NC(=O)CSc2nc(=O)n(CCCN3CCOCC3)c3c2CCCC3)c1,"inconclusive: 5.8 µM [falling, partial curve, poor fit]"
14,O=S(=O)(c1ccc(Cl)cc1)N1CCN(Cc2ccc(O)c3ncccc23)CC1,"inconclusive: 29.1 µM [falling, single point]"
15,Cc1onc(-c2ccccc2Cl)c1C(=O)Nc1ccc(-n2nncc2-c2ccco2)cc1,"inconclusive: 2.91 µM [activator, single point]"
16,COc1ccc(-c2nnc(SCC(=O)c3[nH]c(C)c(C(C)=O)c3C)o2)cc1,"inconclusive: 23.1 µM [falling, single point]"
17,O=C(O)CC/C(=N\Nc1ccc(S(=O)(=O)N2CCCC2)cc1[N+](=O)[O-])c1cccs1,"inconclusive: 20.6 µM [falling, partial curve, poor fit]"
18,Cc1nc2nc(-c3cccs3)[nH]c2cc1Br,"inconclusive: 11.6 µM [activator, partial curve]"
19,N#CC1(NC(=O)COc2cccnc2[N+](=O)[O-])CCCCC1,inactive
20,COc1ccc(-c2cn3c(C)c(C(=O)NC(C)(C)C)sc3n2)cc1,"inconclusive: 8.2 µM [activator, partial curve]"
21,CCCCC(=O)N(c1ccc2oc(C)c(C(C)=O)c2c1)S(=O)(=O)c1ccc(F)cc1C,inactive
22,Cc1nc(NC(=O)c2cccnc2Cl)sc1C,"inconclusive: 2.59 µM [activator, full curve, poor fit]"

# An excerpt of these results, bar-delimited:
row | Structure (SMILES) | Potency
18 | Cc1nc2nc(-c3cccs3)[nH]c2cc1Br | inconclusive: 11.6 µM [activator, partial curve]
19 | N#CC1(NC(=O)COc2cccnc2[N+](=O)[O-])CCCCC1 | inactive

# (continued)

row,Structure (SMILES),Potency
1,Cc1csc(NC(=O)c2cc(-c3ccccc3)nc3ccccc23)n1,"inconclusive: 20.6 µM [falling, single point]"
2,COc1cccc(N2CCN(c3ncnc4c3cnn4-c3ccc(C)cc3C)CC2)c1,active: 18.4 µM
3,CC(c1ccccc1)N(C)C(=O)CN1CCN(S(=O)(=O)c2ccc3c(c2)OCCCO3)CC1 (stereo not given),"inconclusive: 20.6 µM [falling, single point]"
4,CSc1nsc(SCC(=O)Nc2ccccc2)n1,"inconclusive: 23.1 µM [activator, partial curve, poor fit]"
5,COc1cccc(NS(=O)(=O)c2ccc(S(=O)(=O)N3CCOCC3)cc2)c1,"inconclusive: 16.4 µM [falling, partial curve, poor fit]"
6,Cc1c(-c2ccccc2)oc2c(C(=O)N3CCN(c4ccc([N+](=O)[O-])cc4)CC3)cccc2c1=O,"inconclusive: 20.6 µM [falling, single point]"
7,O=C(/C=C/c1ccccc1Cl)NNC(=O)c1cccs1,"inconclusive: 7.31 µM [activator, single point]"
8,COc1cccc(CNC(=S)Nc2cc(OC)ccc2OC)c1,"inconclusive: 23.1 µM [falling, partial curve]"
9,CCOc1cc(C(=O)OCc2cc(=O)n3nc(CC)sc3n2)cc(OCC)c1OCC,"inconclusive: 29.1 µM [falling, single point]"
10,Cc1ccc(NC(=O)c2cc(S(=O)(=O)N(C)C)ccc2N2CCCC2)cc1S(=O)(=O)N(C)C,inactive
11,O=C1/C(=C/N(C(=O)c2ccco2)c2ccc(Cl)cc2)Sc2ccccc21,inactive
12,CCN1CCc2nc3sc(C(=O)Nc4cccc(Cl)c4C)c(N)c3cc2C1,"inconclusive: 5.8 µM [activator, single point]"
13,CC1CCC(C(=O)NC(C(=O)OCC(=O)c2ccccc2)C(C)C)CC1 (stereo not given),active: 16.4 µM
14,COc1ccc(C2=CCCC2)c(OC)c1,inactive
15,COc1cc(NC(=O)CN2CCN(c3ccccc3O)CC2)c(C)cc1[N+](=O)[O-],inactive
16,COc1ccc(N2CCN(CCCNC(=O)CN3CCN(Cc4ccccc4C)C3=O)CC2)cc1,"inconclusive: 11.6 µM [falling, partial curve]"
17,Cc1nn(-c2ccccc2)c2c1cc1c(=O)n(C)c(=O)nc-1n2-c1ccccc1F,"inconclusive: 14.6 µM [falling, partial curve, poor fit]"
18,Cc1sc(NC(=O)c2ccco2)c(C(c2ccccc2)N2CCC(C)CC2)c1C (stereo not given),inactive
19,COc1cccc(-c2cn3nc4c(nc3n2)CCCC4)c1,"inconclusive: 0.184 µM [activator, full curve, poor fit]"
20,COc1ccc2c3c(ccc2c1)C(=O)/C(=C/O)CC3,"inconclusive: 14.6 µM [activator, partial curve, poor fit]"
21,COc1cccc(CC2(CO)CCN(Cc3ccc(NC(C)=O)cc3)CC2)c1,"inconclusive: 3.66 µM [falling, full curve, poor fit]"

# Reference: PubChem BioAssay AID504444 (National Center for Advancing Translational Sciences (NCATS), 2011)
